# According to the supplement of paper PMC6411743:
# ± gives the standard deviation of the averaged measurements. This is a selection; strong and weak results do not stand in their true shares.
# Experiments:
# Test in all cases: NP40-soluble protein abundance relative to vehicle (solubility fold change) (ratio); higher = more soluble protein in presence of ATP
# ARL8A = biological target: T1, ARL8A (UniProt Q96BM9)
# T1 sequence (whole entry): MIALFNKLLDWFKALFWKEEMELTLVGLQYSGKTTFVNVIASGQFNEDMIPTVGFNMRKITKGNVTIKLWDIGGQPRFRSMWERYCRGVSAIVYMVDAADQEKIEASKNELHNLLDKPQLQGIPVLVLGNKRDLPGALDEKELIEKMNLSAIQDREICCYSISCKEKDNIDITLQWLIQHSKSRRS
# Summary of the method: (§1)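 Across three independent experiments, values are fold changes against the detergent-processed vehicle for each replicate, based on vsn-normalised intensities. The samples were Jurkat crude lysate treated with eight concentrations (0.1 to 10 mM) for 10 min at room temperature and then 3 min at 37 °C. Lysate was solubilised with 0.8% NP40 and benzonase, ultracentrifuged, and the supernatant analysed by TMT-labelled LC-MS/MS.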
# ATXN7L3B = biological target: T2, ATXN7L3B (UniProt Q96GX2)
# T2 sequence (whole entry): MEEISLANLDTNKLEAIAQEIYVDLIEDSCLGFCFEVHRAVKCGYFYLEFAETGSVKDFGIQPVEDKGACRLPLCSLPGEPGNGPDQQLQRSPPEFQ
# Summary of the method: as §1
# C8orf37 = biological target: T3, C8orf37 (UniProt Q96NL8)
# T3 sequence (whole entry): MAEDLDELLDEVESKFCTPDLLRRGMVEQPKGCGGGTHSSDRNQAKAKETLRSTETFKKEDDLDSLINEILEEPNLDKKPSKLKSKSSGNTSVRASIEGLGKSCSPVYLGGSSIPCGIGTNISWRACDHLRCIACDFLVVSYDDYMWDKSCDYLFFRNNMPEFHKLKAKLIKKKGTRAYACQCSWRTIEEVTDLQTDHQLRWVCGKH
# Summary of the method: as §1
# DDRGK1 = biological target: T4, DDRGK1 (UniProt Q96HY6)
# T4 sequence (whole entry): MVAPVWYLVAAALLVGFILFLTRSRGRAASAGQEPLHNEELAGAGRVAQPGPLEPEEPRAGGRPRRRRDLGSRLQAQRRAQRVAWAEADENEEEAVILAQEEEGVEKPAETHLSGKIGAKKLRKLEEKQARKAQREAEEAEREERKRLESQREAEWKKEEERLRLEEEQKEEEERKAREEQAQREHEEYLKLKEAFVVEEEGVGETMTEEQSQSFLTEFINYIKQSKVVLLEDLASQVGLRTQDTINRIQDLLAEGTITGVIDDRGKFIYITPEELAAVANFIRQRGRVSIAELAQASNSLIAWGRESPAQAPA
# Summary of the method: as §1
# DNAJC1 = biological target: T5, DNAJC1 (UniProt Q96KC8)
# T5 sequence (whole entry): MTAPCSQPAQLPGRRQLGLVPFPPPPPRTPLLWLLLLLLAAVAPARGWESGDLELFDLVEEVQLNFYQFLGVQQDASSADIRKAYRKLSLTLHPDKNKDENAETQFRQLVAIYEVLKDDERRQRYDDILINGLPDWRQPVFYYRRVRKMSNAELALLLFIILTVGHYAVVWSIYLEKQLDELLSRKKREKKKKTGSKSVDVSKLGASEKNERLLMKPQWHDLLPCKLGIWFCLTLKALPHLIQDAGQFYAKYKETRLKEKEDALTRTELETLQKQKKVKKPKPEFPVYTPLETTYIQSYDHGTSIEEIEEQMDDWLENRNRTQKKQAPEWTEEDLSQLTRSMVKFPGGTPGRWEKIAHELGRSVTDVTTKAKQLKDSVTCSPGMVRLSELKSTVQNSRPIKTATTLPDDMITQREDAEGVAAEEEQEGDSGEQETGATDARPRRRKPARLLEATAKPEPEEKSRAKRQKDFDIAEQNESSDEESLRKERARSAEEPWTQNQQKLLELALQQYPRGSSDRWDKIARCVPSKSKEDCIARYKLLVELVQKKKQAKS
# Summary of the method: as §1
# ISOC1 = biological target: T6, ISOC1 (UniProt Q96CN7)
# T6 sequence (whole entry): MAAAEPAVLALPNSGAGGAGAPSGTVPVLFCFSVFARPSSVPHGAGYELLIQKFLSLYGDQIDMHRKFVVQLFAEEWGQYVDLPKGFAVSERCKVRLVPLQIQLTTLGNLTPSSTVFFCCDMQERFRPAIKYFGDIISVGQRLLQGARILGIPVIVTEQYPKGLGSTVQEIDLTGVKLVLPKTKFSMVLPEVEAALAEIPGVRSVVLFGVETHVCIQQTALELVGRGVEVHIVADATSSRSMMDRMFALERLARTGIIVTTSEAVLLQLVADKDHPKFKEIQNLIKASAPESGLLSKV
# Summary of the method: as §1
# MRRF = biological target: T7, MRRF (UniProt Q96E11)
# T7 sequence (whole entry): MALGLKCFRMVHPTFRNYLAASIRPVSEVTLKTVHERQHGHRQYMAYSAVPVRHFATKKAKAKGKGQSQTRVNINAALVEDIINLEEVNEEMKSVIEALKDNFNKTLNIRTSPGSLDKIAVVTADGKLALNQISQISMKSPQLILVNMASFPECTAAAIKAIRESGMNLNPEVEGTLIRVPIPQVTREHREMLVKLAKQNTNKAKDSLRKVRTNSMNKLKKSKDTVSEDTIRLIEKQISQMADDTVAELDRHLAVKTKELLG
# Summary of the method: as §1
# NACC1 = biological target: T8, NACC1 (UniProt Q96RE7)
# T8 sequence (whole entry): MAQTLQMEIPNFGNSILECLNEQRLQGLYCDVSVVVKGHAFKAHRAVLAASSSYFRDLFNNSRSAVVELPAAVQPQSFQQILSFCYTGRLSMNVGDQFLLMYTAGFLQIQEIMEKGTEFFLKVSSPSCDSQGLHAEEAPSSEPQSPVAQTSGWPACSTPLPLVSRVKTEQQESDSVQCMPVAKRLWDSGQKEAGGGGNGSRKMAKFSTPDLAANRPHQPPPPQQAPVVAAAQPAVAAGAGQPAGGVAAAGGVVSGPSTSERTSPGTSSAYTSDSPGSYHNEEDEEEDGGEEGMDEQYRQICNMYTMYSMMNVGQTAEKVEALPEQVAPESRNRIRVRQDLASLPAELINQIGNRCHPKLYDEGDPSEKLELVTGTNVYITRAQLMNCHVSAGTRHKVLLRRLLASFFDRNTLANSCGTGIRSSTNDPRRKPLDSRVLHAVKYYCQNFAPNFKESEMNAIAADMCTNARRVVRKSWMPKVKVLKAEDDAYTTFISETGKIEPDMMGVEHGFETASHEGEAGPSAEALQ
# Summary of the method: as §1
# RBM17 = biological target: T9, RBM17 (UniProt Q96I25)
# T9 sequence (whole entry): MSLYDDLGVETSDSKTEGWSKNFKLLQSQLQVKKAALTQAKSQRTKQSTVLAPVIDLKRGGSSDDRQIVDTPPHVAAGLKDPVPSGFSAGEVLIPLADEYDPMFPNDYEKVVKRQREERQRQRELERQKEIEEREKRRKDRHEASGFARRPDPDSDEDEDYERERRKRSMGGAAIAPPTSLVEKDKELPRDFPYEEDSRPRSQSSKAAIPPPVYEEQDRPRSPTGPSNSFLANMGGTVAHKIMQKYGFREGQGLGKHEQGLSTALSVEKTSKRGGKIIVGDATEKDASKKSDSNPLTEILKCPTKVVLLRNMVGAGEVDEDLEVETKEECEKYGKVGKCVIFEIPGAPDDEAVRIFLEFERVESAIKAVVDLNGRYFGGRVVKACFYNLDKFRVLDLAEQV
# Summary of the method: as §1
# RUFY1 = biological target: T10, RUFY1 (UniProt Q96T51)
# T10 sequence (whole entry): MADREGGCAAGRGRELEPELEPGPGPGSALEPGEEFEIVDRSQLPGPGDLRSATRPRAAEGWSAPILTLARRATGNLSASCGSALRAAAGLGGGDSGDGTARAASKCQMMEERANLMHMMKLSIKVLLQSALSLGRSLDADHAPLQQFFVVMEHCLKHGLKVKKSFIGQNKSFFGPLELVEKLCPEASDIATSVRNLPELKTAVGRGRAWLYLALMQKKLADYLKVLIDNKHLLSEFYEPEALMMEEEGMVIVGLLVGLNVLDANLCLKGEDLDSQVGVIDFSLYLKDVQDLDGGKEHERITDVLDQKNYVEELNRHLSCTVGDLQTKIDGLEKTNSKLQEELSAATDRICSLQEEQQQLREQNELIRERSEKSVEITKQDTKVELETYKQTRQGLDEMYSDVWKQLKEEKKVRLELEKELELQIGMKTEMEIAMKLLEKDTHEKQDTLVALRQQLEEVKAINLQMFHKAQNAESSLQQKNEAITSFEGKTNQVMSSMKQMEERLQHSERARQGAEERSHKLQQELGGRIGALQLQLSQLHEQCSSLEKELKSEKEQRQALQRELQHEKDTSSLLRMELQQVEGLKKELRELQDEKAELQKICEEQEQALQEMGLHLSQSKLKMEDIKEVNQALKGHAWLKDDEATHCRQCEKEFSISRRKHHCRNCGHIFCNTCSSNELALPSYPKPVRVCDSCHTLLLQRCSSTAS
# Summary of the method: as §1
compound,measurement,setting,value
Nc1ncnc2c1ncn2[C@@H]1O[C@H](COP(=O)(O)OP(=O)(O)OP(=O)(O)O)[C@@H](O)[C@H]1O [adenosine triphosphate],NP40-soluble protein abundance,ARL8A; concentration: 1mM,1.01 ± 0.16
same,NP40-soluble protein abundance,ARL8A; concentration: 2mM,1.01 ± 0.14
same,NP40-soluble protein abundance,ARL8A; concentration: 4mM,0.989 ± 0.11
same,NP40-soluble protein abundance,ARL8A; concentration: 6mM,0.939 ± 0.14
same,NP40-soluble protein abundance,ARL8A; concentration: 8mM,0.997 ± 0.081
same,NP40-soluble protein abundance,ARL8A; concentration: 10mM,0.984 ± 0.082
same,NP40-soluble protein abundance,ATXN7L3B; concentration: 1mM,0.911 ± 0.18
same,NP40-soluble protein abundance,ATXN7L3B; concentration: 2mM,0.907 ± 0.13
same,NP40-soluble protein abundance,ATXN7L3B; concentration: 4mM,0.889 ± 0.14
same,NP40-soluble protein abundance,ATXN7L3B; concentration: 6mM,0.9 ± 0.21
same,NP40-soluble protein abundance,ATXN7L3B; concentration: 8mM,0.902 ± 0.17
same,NP40-soluble protein abundance,ATXN7L3B; concentration: 10mM,0.945 ± 0.15
same,NP40-soluble protein abundance,C8orf37; concentration: 1mM,0.898 ± 0.068
same,NP40-soluble protein abundance,C8orf37; concentration: 2mM,0.9994 ± 0.0078
same,NP40-soluble protein abundance,C8orf37; concentration: 4mM,0.839 ± 0.047
same,NP40-soluble protein abundance,C8orf37; concentration: 6mM,0.935 ± 0.081
same,NP40-soluble protein abundance,C8orf37; concentration: 8mM,0.8368 ± 0.0069
same,NP40-soluble protein abundance,C8orf37; concentration: 10mM,0.88 ± 0.039
same,NP40-soluble protein abundance,DDRGK1; concentration: 1mM,1.01 ± 0.13
same,NP40-soluble protein abundance,DDRGK1; concentration: 2mM,1.06 ± 0.088
same,NP40-soluble protein abundance,DDRGK1; concentration: 4mM,1.09 ± 0.11
same,NP40-soluble protein abundance,DDRGK1; concentration: 6mM,1.15 ± 0.1
same,NP40-soluble protein abundance,DDRGK1; concentration: 8mM,1.12 ± 0.098
same,NP40-soluble protein abundance,DDRGK1; concentration: 10mM,1.13 ± 0.071
same,NP40-soluble protein abundance,DNAJC1; concentration: 1mM,0.993 ± 0.021
same,NP40-soluble protein abundance,DNAJC1; concentration: 2mM,1 ± 0.03
same,NP40-soluble protein abundance,DNAJC1; concentration: 4mM,0.998 ± 0.07
same,NP40-soluble protein abundance,DNAJC1; concentration: 6mM,1.02 ± 0.049
same,NP40-soluble protein abundance,DNAJC1; concentration: 8mM,0.945 ± 0.029
same,NP40-soluble protein abundance,DNAJC1; concentration: 10mM,1 ± 0.021
same,NP40-soluble protein abundance,ISOC1; concentration: 1mM,0.976 ± 0.09
same,NP40-soluble protein abundance,ISOC1; concentration: 2mM,0.932 ± 0.027
same,NP40-soluble protein abundance,ISOC1; concentration: 4mM,0.943 ± 0.057
same,NP40-soluble protein abundance,ISOC1; concentration: 6mM,0.907 ± 0.089
same,NP40-soluble protein abundance,ISOC1; concentration: 8mM,0.936 ± 0.031
same,NP40-soluble protein abundance,ISOC1; concentration: 10mM,0.935 ± 0.036
same,NP40-soluble protein abundance,MRRF; concentration: 1mM,0.97 ± 0.06
same,NP40-soluble protein abundance,MRRF; concentration: 2mM,0.935 ± 0.06
same,NP40-soluble protein abundance,MRRF; concentration: 4mM,0.929 ± 0.058
same,NP40-soluble protein abundance,MRRF; concentration: 6mM,0.93 ± 0.036
same,NP40-soluble protein abundance,MRRF; concentration: 8mM,0.906 ± 0.011
same,NP40-soluble protein abundance,MRRF; concentration: 10mM,0.851 ± 0.11
same,NP40-soluble protein abundance,NACC1; concentration: 1mM,0.947 ± 0.058
same,NP40-soluble protein abundance,NACC1; concentration: 2mM,0.956 ± 0.045
same,NP40-soluble protein abundance,NACC1; concentration: 4mM,0.932 ± 0.042
same,NP40-soluble protein abundance,NACC1; concentration: 6mM,0.943 ± 0.074
same,NP40-soluble protein abundance,NACC1; concentration: 8mM,0.911 ± 0.021
same,NP40-soluble protein abundance,NACC1; concentration: 10mM,0.914 ± 0.025
same,NP40-soluble protein abundance,RBM17; concentration: 1mM,1.15 ± 0.019
same,NP40-soluble protein abundance,RBM17; concentration: 2mM,1.15 ± 0.039
same,NP40-soluble protein abundance,RBM17; concentration: 4mM,1.18 ± 0.03
same,NP40-soluble protein abundance,RBM17; concentration: 6mM,1.24 ± 0.043
same,NP40-soluble protein abundance,RBM17; concentration: 8mM,1.28 ± 0.038
same,NP40-soluble protein abundance,RBM17; concentration: 10mM,1.3 ± 0.042
same,NP40-soluble protein abundance,RUFY1; concentration: 1mM,0.9689 ± 0.0045
same,NP40-soluble protein abundance,RUFY1; concentration: 2mM,0.97 ± 0.019
same,NP40-soluble protein abundance,RUFY1; concentration: 4mM,0.9508 ± 0.0069
same,NP40-soluble protein abundance,RUFY1; concentration: 6mM,0.977 ± 0.029
same,NP40-soluble protein abundance,RUFY1; concentration: 8mM,0.9531 ± 0.0057
same,NP40-soluble protein abundance,RUFY1; concentration: 10mM,0.943 ± 0.024

# 4 entries from above, as tab-separated lines.
compound	measurement	setting	value
Nc1ncnc2c1ncn2[C@@H]1O[C@H](COP(=O)(O)OP(=O)(O)OP(=O)(O)O)[C@@H](O)[C@H]1O [adenosine triphosphate]	NP40-soluble protein abundance	ATXN7L3B; concentration: 2mM	0.907 ± 0.13
same	NP40-soluble protein abundance	ISOC1; concentration: 8mM	0.936 ± 0.031
same	NP40-soluble protein abundance	MRRF; concentration: 1mM	0.97 ± 0.06
same	NP40-soluble protein abundance	RBM17; concentration: 6mM	1.24 ± 0.043
